The results in this text go back to paper PMC6232469.

Sequences of proteins named here, by UniProt entry; tags and fusion partners are left off.
UniProt P03431: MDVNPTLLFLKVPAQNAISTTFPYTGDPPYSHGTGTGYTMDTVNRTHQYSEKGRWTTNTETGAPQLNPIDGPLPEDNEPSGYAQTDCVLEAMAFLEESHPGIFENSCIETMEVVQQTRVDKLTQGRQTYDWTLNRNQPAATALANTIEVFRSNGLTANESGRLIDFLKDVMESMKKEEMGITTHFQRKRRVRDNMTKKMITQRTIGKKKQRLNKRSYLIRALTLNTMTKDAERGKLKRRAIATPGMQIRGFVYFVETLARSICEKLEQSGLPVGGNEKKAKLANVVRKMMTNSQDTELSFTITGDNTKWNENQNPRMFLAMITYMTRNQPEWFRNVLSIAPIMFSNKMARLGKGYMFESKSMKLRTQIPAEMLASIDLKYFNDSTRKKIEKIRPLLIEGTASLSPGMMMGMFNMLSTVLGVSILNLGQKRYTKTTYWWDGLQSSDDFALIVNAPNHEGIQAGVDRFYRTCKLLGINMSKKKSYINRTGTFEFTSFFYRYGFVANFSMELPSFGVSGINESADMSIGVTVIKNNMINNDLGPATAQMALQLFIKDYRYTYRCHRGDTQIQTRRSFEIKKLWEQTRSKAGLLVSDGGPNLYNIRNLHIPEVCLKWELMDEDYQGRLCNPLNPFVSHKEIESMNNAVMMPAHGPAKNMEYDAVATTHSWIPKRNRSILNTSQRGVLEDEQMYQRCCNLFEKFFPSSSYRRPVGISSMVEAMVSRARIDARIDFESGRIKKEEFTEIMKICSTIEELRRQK
UniProt Q16531: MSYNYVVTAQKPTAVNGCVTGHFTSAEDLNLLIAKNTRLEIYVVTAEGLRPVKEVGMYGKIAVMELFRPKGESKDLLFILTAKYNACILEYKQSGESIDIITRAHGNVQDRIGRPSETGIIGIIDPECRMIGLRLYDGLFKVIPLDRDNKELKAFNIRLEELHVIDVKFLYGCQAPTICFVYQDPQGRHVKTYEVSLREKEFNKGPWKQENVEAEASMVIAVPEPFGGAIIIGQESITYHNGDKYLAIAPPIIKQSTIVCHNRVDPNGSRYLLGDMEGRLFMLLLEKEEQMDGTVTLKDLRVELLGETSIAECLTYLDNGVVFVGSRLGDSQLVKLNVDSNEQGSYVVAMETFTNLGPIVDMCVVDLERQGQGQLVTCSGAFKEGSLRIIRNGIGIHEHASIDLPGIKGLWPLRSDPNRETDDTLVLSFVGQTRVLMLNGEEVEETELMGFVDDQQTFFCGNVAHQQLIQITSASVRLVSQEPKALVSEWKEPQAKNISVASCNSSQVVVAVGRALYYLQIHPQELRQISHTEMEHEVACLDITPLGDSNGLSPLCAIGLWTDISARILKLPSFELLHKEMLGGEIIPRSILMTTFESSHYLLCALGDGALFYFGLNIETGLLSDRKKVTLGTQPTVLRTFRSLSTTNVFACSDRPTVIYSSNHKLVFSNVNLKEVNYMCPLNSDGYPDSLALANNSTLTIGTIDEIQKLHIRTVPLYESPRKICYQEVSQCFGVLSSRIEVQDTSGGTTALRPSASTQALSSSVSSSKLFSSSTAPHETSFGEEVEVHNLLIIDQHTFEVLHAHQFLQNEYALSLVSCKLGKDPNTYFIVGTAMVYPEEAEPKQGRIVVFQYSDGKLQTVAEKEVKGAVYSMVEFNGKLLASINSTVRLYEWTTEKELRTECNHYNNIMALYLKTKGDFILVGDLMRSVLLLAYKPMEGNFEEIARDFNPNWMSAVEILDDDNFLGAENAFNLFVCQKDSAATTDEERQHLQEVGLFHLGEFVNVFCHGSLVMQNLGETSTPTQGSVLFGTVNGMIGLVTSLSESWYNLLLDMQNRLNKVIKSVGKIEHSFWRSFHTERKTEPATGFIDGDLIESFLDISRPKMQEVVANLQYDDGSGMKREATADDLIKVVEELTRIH
UniProt P68104: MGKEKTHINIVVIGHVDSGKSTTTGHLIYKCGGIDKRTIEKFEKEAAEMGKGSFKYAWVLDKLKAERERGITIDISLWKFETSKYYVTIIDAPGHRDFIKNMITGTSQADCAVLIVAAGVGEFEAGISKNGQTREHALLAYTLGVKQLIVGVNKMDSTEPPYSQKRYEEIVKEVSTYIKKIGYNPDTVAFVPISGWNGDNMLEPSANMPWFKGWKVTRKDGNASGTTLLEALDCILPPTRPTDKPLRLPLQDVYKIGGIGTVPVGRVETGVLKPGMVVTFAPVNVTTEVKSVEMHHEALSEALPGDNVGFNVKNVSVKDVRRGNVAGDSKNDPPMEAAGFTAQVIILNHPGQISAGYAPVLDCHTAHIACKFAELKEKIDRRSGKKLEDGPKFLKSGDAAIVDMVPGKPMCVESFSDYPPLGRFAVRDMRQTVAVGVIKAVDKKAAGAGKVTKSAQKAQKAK
UniProt P62136: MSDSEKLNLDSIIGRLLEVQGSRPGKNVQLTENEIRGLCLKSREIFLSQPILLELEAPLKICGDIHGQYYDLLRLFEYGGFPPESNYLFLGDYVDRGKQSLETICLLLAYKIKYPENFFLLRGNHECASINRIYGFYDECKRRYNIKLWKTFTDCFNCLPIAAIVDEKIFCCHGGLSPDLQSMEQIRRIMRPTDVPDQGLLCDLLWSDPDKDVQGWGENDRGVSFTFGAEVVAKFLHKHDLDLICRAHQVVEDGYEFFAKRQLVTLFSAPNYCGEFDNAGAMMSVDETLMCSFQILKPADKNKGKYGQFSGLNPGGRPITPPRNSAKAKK

Results are given in words; binding and its absence hold for the method and conditions named. Binding seen in cells or lysates may run through a third protein. Here binding means that the protein was enriched with, or labelled near, the bait; the list need not be complete.

The assay concerns the target Flag-PB1 (Flag-tagged polymerase basic protein 1 of A/Puerto Rico/8/1934 H1N1) (influenza A virus A/Puerto Rico/8/1934 (PR8, H1N1)) (UniProt P03431). As to the kind of experiment: affinity purification with mass spectrometry.
With DDB1 (from UniProt Q16531 1-1140), the binding result is listed as “binds”.

Consider EEF1A1 (from UniProt P68104 1-462), for which the binding entry was “binds”. As for PPP1CA (from UniProt P62136 1-330), the binding entry is “binds”.
